{"source": "patent US20060084652A1", "about": "“Alkylidene-tetrahydronaphthalene derivatives, process for their production and their use as anti-inflammatory agents” (priority 2004, published 2006)", "molecular_target": "T1, progesterone receptor (PR) (Homo sapiens, UniProt P06401)", "T1 construct": "made in house", "T1 sequence (P06401 1-933)": "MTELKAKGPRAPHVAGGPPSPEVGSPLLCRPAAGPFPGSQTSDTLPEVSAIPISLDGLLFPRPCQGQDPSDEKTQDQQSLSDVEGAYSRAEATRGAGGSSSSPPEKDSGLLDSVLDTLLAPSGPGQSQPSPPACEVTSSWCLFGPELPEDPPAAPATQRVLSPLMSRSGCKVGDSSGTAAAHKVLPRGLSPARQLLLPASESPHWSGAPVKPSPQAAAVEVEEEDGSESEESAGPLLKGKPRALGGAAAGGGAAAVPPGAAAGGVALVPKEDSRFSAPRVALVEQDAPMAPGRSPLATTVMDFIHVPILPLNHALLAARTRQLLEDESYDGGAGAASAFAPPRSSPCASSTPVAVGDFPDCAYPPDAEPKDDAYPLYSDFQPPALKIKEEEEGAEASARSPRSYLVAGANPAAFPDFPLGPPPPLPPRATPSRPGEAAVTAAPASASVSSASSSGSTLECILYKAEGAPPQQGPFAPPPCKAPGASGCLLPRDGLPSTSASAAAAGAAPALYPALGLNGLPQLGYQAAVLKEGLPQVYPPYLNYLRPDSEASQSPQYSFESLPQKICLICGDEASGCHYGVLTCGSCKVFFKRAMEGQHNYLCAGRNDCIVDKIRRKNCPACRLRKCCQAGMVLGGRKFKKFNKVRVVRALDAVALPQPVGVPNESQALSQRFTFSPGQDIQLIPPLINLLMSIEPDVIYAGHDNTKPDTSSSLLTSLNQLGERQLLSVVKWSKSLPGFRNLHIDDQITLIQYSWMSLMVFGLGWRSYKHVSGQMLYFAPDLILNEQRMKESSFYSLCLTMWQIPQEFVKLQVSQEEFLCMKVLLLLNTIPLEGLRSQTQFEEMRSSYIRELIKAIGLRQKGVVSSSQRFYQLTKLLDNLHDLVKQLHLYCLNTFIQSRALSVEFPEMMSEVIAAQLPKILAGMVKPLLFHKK", "assay": "Binding to the progesterone receptor, recombinantly produced receptor", "note": "Some results were stated once for a whole list of compounds, not compound by compound.", "data": [{"substance": "(cis, Z)-5-{[4-Ethylidene-6-fluoro-2,5-dihydroxy-2-(trifluoromethyl)-1,2,3,4-tetrahydronaphthalen-1-yl]amino}-quinolin-2(1H)-one [Example 2]", "values": [{"measurement": "IC50", "value": "> 1000", "unit": "nM"}]}]}
